Measured values as given in the supplement of paper PMC7877785.
± gives the uncertainty stated by the source. Many of these values have a large error.

Test: self-splicing fitness, log relative to wild type (ln ratio); higher = more splicing; Tetrahymena group I intron in knt gene, E. coli kanamycin selection, DiMSum; sequences stand for … in CUCUCU…GGAGGGAAAAGUUAUCAGGCAUGCACCUGGUAGCUAGUCUUUAAACCAAUAGAUUGCAUCGGUUUAAAAGGCAAGACCGUCAAAUUGCGGGAAAGGGGUCAACAGCCGUUCAGUACCAAGUCUCAGGGGAAACUUUGAGAUGGCCUUGCAAAGGGUAUGGUAAUAAGCUGACGGACAUGGUCCUAACCACGCAGCCAAGUCCUAAGUCAACAGAUCUUCUGUUGAUAUGGAUGCAGUUCACAGACUAAAUGUCGGUCGGGGAAGAUGUAUUCUUCUCAUAAGAUAUAGUCGGACCUCUCCUUAAUGGGAGCUAGCGGAUGAAGUGAUGCAACACUGGAGCCGCUGGGAACUAAUUUGUAUGCGAAAGUAUAUUGAUUAGUUUUGGAGUACUCGUGGUCG
How it was run: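 The eight P1ex-region nucleotides of an intron in the knt kanamycin-resistance gene on pET-22b(+) were all randomised and the library put into E. coli BL21(DE3). Six replicate transformations were grown overnight at 37°C or 30°C on LB agar with or without 25 μg/mL kanamycin, together with 100 μg/mL carbenicillin, 50 μM IPTG and 0.2% rhamnose. Colonies were pooled and amplicon-sequenced on an Illumina HiSeq 2500. Fitness from DiMSum is the error-weighted combination of wild-type-normalised replicate fold changes, kanamycin over none.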

| Sequence | self-splicing fitness (ln) (30 °C) | self-splicing fitness (ln) (37 °C) |
| --- | --- | --- |
| UCAGAGCAAUAUUACGGAAA | -3.12 ± 1.1 | – |
| CUGGAGCAAUAUUACGGUUC | – | 0.0694 ± 0.63 |
| GCGUAGCAAUAUUACGGCGC | -2.82 ± 0.8 | -1.73 ± 0.68 |
| UAGAAGCAAUAUUACGCCAU | – | -2.83 ± 0.53 |
| UUCGAGCAAUAUUACGUACC | -3 ± 0.62 | -1.29 ± 0.58 |
| GGCAAGCAAUAUUACGCUGC | – | -2.86 ± 1.1 |
| GACGAGCAAUAUUACGUAAA | – | -2.71 ± 0.54 |
| CACGAGCAAUAUUACGCGAC | -3.6 ± 0.52 | – |
| CUUCAGCAAUAUUACGGCCC | – | -2.72 ± 0.63 |
| UUCGAGCAAUAUUACGCUUC | -4.4 ± 1 | -2.55 ± 0.62 |
| CGUAAGCAAUAUUACGGUCA | -2.2 ± 0.15 | -0.467 ± 0.12 |
| UAAAAGCAAUAUUACGGGCU | -2.79 ± 0.23 | -2 ± 0.29 |
| CCAGAGCAAUAUUACGACGA | -2.94 ± 0.25 | -2.34 ± 0.3 |
| ACAGAGCAAUAUUACGAUCU | -1.68 ± 0.22 | -2.33 ± 0.56 |
| CAGAAGCAAUAUUACGCGAC | -3.9 ± 1 | – |
| CCUAAGCAAUAUUACGACGG | -3.49 ± 0.19 | -2.24 ± 0.24 |
| CACAAGCAAUAUUACGCCCA | -0.966 ± 0.091 | 0.114 ± 0.09 |
| CAAGAGCAAUAUUACGAAAU | -4.31 ± 1 | -2.79 ± 0.65 |
| UCCAAGCAAUAUUACGAUCC | -2.5 ± 0.5 | – |
| CGAGAGCAAUAUUACGCGCC | -2.25 ± 1.1 | -0.778 ± 1 |

| Sequence | self-splicing fitness (ln) (30 °C) | self-splicing fitness (ln) (37 °C) |
| --- | --- | --- |
| UCCGAGCAAUAUUACGAUCC | -2.81 ± 1.1 | – |
| GGGCAGCAAUAUUACGCCCA | -2.18 ± 0.48 | -1.26 ± 0.32 |
| GAGUAGCAAUAUUACGGGGU | -2.23 ± 0.61 | -2.5 ± 0.78 |
| GGCGAGCAAUAUUACGCGCU | -0.358 ± 0.57 | – |
| CCUCAGCAAUAUUACGCCAC | -3.18 ± 0.36 | -2.12 ± 0.41 |
| CAUGAGCAAUAUUACGACAA | -3.15 ± 0.61 | – |
| GCAGAGCAAUAUUACGCGGC | -3.8 ± 0.77 | -2.58 ± 0.64 |
| UGUGAGCAAUAUUACGUGUC | -4.09 ± 1 | – |
| UUGUAGCAAUAUUACGCUGU | -3.02 ± 0.35 | -2.49 ± 0.27 |
| CUUGAGCAAUAUUACGCCCG | – | -2.25 ± 0.78 |
| CACGAGCAAUAUUACGACCA | -1.79 ± 0.56 | -2.16 ± 0.65 |
| UGUGAGCAAUAUUACGACUC | – | -1.13 ± 1.2 |
| UGGGAGCAAUAUUACGGCUC | -2.79 ± 1.2 | -2.79 ± 1.1 |
| CGAGAGCAAUAUUACGUAAA | -3.52 ± 0.62 | – |
| GCACAGCAAUAUUACGCGUG | -3.87 ± 0.2 | -2.35 ± 0.18 |
| AUGGAGCAAUAUUACGAGUC | – | -1.83 ± 1.1 |
| GGGCAGCAAUAUUACGUCAC | -3.64 ± 0.6 | – |
| ACUGAGCAAUAUUACGAACC | – | 0.393 ± 0.83 |
| UUCCAGCAAUAUUACGUUAG | -2.57 ± 0.17 | -0.904 ± 0.16 |
| UGGCAGCAAUAUUACGCCAU | – | -3.3 ± 1 |

| Sequence | self-splicing fitness (ln) (30 °C) | self-splicing fitness (ln) (37 °C) |
| --- | --- | --- |
| UCUUAGCAAUAUUACGCUAA | – | -1.88 ± 0.82 |
| AUCUAGCAAUAUUACGCCAC | -1.7 ± 0.53 | -1.93 ± 0.51 |
| UACGAGCAAUAUUACGCUCG | -4.17 ± 0.75 | – |
| UAUUAGCAAUAUUACGAGAA | -1.93 ± 1.2 | – |
| CGAUAGCAAUAUUACGAAGC | -3.92 ± 0.53 | – |
| CUCGAGCAAUAUUACGACCC | -0.939 ± 0.6 | – |
| UCUUAGCAAUAUUACGCUCA | -3.43 ± 1 | -2.61 ± 0.63 |
| CGCUAGCAAUAUUACGUCGC | – | -3.49 ± 1 |
| UGCGAGCAAUAUUACGGCAC | -4.01 ± 0.59 | -2.13 ± 0.57 |
| UCGGAGCAAUAUUACGGCAG | -3.96 ± 1 | -1.72 ± 0.66 |
| UAUGAGCAAUAUUACGAUUC | -3.97 ± 1 | – |
| UGUUAGCAAUAUUACGAAAC | – | -0.0544 ± 0.78 |
| GGAUAGCAAUAUUACGUCCC | -1.55 ± 1.2 | – |
| GCAGAGCAAUAUUACGACUG | – | -1.37 ± 0.57 |
| UACUAGCAAUAUUACGGCCG | 0.508 ± 0.14 | 0.00712 ± 0.17 |
| CUAGAGCAAUAUUACGGUAU | -4.38 ± 0.72 | – |
| GGUGAGCAAUAUUACGCAAA | -1.76 ± 0.6 | -1.71 ± 0.52 |
| UAUUAGCAAUAUUACGGGGU | -3.37 ± 0.52 | – |
| GUUGAGCAAUAUUACGGACG | -1.78 ± 0.53 | -1.42 ± 0.29 |

Looked up above:
Under self-splicing fitness (ln) (30 °C), CUAGAGCAAUAUUACGGUAU reads -4.38 ± 0.72
Under self-splicing fitness (ln) (30 °C), GGAUAGCAAUAUUACGUCCC reads -1.55 ± 1.2
Under self-splicing fitness (ln) (30 °C), UCUUAGCAAUAUUACGCUCA reads -3.43 ± 1
Under self-splicing fitness (ln) (30 °C), UCGGAGCAAUAUUACGGCAG reads -3.96 ± 1
Under self-splicing fitness (ln) (30 °C), GGUGAGCAAUAUUACGCAAA reads -1.76 ± 0.6
